Measurements reported in PubChem BioAssay AID602196 (INSERM, 2012)

Aim: 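Knock-downs that protect lung cancer cells from cisplatin or sensitise them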
System: human A549 lung cancer cells
Knock-down reagent: siRNA pair against human genes
Duration: 48 h transfection before cisplatin; time from cisplatin to read-out not stated
Challenge: cisplatin at a dose killing half of control-siRNA cells; exact dose and duration not given
Measurement: 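Shift in cisplatin death relative to control siRNA, from -50 (all cells die) to +50 (no cells die); siRNAs harmful on their own scored 0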
Reading the numbers: two-siRNA summed score (-2 to +2): higher = both siRNAs protect from cisplatin killing; -2 means both sensitise
Call rule: 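Each siRNA scores 0 if harmful alone by LDH or WST-1, otherwise +1 if it reduces and -1 if it increases cisplatin killing; a gene is active when both siRNAs agree (sum +2 or -2)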
Meaning of the calls: active = both siRNAs shift cisplatin killing the same way; inactive = no consistent shift, or siRNA harmful alone
Shown is one part, drawn at random, of about 23,000 reagents tested. In the full data, 455 (2%) got an active call. 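Active includes both protection and sensitisation; some change values fall well beyond the stated -50 to +50 range.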 Unmarked entries are inactive. Further read-outs or replicates are left out here. Not stated in the record: the amount of reagent.

CDCA8 showed two-siRNA summed score (-2 to +2) = 0.
With knock-down of COA6 the results were two-siRNA summed score (-2 to +2) = 0.
For LACC1, the values are two-siRNA summed score (-2 to +2) = 0.
RPS6KA4 scored two-siRNA summed score (-2 to +2) = 0.
After knock-down of LOC440119 the results were two-siRNA summed score (-2 to +2) = 0.
XRCC6P2 gave two-siRNA summed score (-2 to +2) = 0.
RBM39 showed two-siRNA summed score (-2 to +2) = 0.
ZFR showed two-siRNA summed score (-2 to +2) = 0.
Knock-down of DNAJB11 gave: two-siRNA summed score (-2 to +2) = 0.
For SPATA7, the entry reads two-siRNA summed score (-2 to +2) = 1.
SLC39A13 gave two-siRNA summed score (-2 to +2) = 1.
Against LOC442040, the values are two-siRNA summed score (-2 to +2) = 0.
For CCAR2, the entry reads two-siRNA summed score (-2 to +2) = 0.
For CRISP1, the entry reads two-siRNA summed score (-2 to +2) = 0.
After knock-down of DNAJC24, the record shows two-siRNA summed score (-2 to +2) = 0.
Against CCND1, the entry reads two-siRNA summed score (-2 to +2) = 1.
With knock-down of LOC400756 (retired record), the screen gave two-siRNA summed score (-2 to +2) = 0.
Against MRPL4 the deposit lists two-siRNA summed score (-2 to +2) = 1.
For RANGAP1, the entry reads two-siRNA summed score (-2 to +2) = 0.
For HOXA9 the deposit lists two-siRNA summed score (-2 to +2) = 0.
With knock-down of LOC401701, the record shows two-siRNA summed score (-2 to +2) = 0.
NUFIP1 showed two-siRNA summed score (-2 to +2) = 0.
For LOC391784, the entry reads two-siRNA summed score (-2 to +2) = 1.
LOC285940 showed two-siRNA summed score (-2 to +2) = 1.
FASTKD1 showed two-siRNA summed score (-2 to +2) = 0.
Silencing of SHCBP1L gave: two-siRNA summed score (-2 to +2) = 0.
After knock-down of STX5, the screen gave two-siRNA summed score (-2 to +2) = 0.
After knock-down of ESR2, the screen gave two-siRNA summed score (-2 to +2) = 0.
After knock-down of RABGAP1L, the screen gave two-siRNA summed score (-2 to +2) = 0.
With knock-down of SEC14L4, the record shows two-siRNA summed score (-2 to +2) = 0.
With knock-down of NFYC, the record shows two-siRNA summed score (-2 to +2) = 1.
After knock-down of LOC442670, the screen gave two-siRNA summed score (-2 to +2) = 1.
Against LOC388752, the entry reads two-siRNA summed score (-2 to +2) = 1.
With knock-down of LINC02145, the screen gave two-siRNA summed score (-2 to +2) = 0.
After knock-down of ZNF420, the record shows two-siRNA summed score (-2 to +2) = 0.
For ATG4C, the values are two-siRNA summed score (-2 to +2) = 0.
After knock-down of NPHP1, the screen gave two-siRNA summed score (-2 to +2) = 0.
With knock-down of FOXA2, the screen gave two-siRNA summed score (-2 to +2) = 1.
For PTPRVP, the values are two-siRNA summed score (-2 to +2) = 1.
Silencing of LOC144766 gave: two-siRNA summed score (-2 to +2) = 0.

A run of entries of the results above, for reference:
SPATA7 | two-siRNA summed score (-2 to +2) = 1
SLC39A13 | two-siRNA summed score (-2 to +2) = 1
LOC442040 | two-siRNA summed score (-2 to +2) = 0
CCAR2 | two-siRNA summed score (-2 to +2) = 0
CRISP1 | two-siRNA summed score (-2 to +2) = 0
